No constants are given. Whether binding was seen depends on the method and setting. For part of these data: Binding seen in cells or lysates may run through a third protein. Some binding calls cover weakened binding; strength is not graded here. Where a sequence is shown, tags or fusion partners need not be part of it.
What was measured:
GST-RNF138 = target: T1, GST-RNF138 (UniProt Q8WVD3); assay: pull-down; purified recombinant GST-RNF138, His-APC (N-terminal) and His-β-catenin incubated together overnight at 4°C in 25 mM Tris, 300 mM NaCl, 2 mM DTT, 2% glycerol, 0.1% Tween-20, pH 8.0; GST beads; immunoblot; both purified
T1 sequence: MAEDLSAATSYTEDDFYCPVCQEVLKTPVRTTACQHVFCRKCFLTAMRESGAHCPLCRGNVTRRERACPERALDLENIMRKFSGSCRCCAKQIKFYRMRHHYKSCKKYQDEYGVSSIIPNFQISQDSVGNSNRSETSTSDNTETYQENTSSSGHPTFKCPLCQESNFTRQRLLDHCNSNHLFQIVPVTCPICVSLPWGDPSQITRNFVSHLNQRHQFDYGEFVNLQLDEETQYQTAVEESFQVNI

The chains behind the UniProt entries cited, without tags or fusion partners.
UniProt P35222: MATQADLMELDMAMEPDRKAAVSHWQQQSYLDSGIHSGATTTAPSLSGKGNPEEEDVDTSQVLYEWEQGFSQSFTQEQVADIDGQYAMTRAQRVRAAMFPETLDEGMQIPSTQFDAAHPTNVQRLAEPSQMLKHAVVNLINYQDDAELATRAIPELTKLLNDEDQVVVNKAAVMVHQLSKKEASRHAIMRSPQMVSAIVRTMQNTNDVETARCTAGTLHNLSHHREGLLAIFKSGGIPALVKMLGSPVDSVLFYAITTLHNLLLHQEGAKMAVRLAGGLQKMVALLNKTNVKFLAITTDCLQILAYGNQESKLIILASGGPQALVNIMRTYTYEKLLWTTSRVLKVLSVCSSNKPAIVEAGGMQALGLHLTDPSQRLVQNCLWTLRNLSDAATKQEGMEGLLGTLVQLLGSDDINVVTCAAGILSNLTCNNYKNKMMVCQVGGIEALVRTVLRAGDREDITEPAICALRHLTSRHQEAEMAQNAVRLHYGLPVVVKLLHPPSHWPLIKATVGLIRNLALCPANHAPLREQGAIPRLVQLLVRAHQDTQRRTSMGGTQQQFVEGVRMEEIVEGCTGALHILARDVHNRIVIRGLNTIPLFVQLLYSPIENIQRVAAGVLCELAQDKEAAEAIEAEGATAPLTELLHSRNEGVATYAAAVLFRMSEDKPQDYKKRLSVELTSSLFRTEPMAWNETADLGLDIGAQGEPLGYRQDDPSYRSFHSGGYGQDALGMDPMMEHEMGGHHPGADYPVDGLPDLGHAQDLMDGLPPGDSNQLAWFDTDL

GFP-RNF138 = target: T2, GFP-RNF138 (UniProt Q8WVD3); assay: co-IP; lysates of HEK-293T cells transfected with GFP-RNF138 or GFP; anti-GFP nanobody agarose beads overnight at 4°C; IP lysis buffer 30 mM Tris pH 7.5, 150 mM NaCl, 10% glycerol, 1% Triton X-100; blots for β-catenin, APC, p62 and GFP
T2 sequence: T1 sequence

| binding (GST-RNF138) | binding (GFP-RNF138) | Substance |
| --- | --- | --- |
| binds | – | His-β-catenin (from UniProt P35222 1-781) |
| – | binds | p62 (from UniProt Q13501 1-440) |
| – | binds | β-catenin (from UniProt P35222 1-781) |

— article PMC11984406
